Test results as given in patent US20020136691A1, “Pharmacological evaluation test (PET) in animals for continuous assessment of physiological functions” (priority 2000, published 2002).

Tested on: Sprague Dawley rats
Assay: Renal function monitoring (urine collection in metabolism cages)
Format: in vivo
Settings: 10 and 30 mg/kg p.o.; 0-8 hour urine collection period

NS(=O)(=O)c1cc(C(=O)O)c(NCc2ccco2)cc1Cl [furosemide]
Na^+ excretion (natriuresis): dose dependent increase
